We go through eleven molecules from article PMC10143822, “Structural Adaptation of the Single-Stranded DNA-Binding Protein C-Terminal to DNA Metabolizing Partners Guides Inhibitor Design” (Pharmaceutics, 2023).

No constants are given. Whether binding was seen depends on the method and setting. Some binding calls cover weakened binding; strength is not graded here.

Assay [1] deals with T1, E. coli Exonuclease I (E. coli, UniProt P04995 1-471).
T1 construct: Exonuclease I of E. coli, from plasmid pET14b-E. coli Exonuclease I (Addgene 104552); The His tag was cut off with thrombin only for the purified protein; also called ExoI; Exol; source: E. coli BL21 (DE3) pLysS, purified (Ni-NTA, heparin); also in cell lysate (pull-down)
T1 sequence: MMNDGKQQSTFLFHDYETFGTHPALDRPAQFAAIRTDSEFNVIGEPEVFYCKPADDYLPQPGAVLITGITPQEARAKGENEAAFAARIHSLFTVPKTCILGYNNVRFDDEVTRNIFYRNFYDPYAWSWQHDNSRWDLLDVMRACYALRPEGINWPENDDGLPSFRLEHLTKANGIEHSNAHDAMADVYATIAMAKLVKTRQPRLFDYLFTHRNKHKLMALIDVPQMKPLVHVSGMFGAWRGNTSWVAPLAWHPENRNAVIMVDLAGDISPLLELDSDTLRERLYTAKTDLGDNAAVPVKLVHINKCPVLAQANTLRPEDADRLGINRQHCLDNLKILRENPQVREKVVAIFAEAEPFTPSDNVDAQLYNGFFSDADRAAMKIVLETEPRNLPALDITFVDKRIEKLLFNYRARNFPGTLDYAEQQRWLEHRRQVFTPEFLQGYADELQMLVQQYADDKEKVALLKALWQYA
The assay is described as follows: 19F-NMR; 19F signals of peptides with 4-CF3-Phe residues, ExoI added in a 1:1 ratio; both purified.

Assay [2] concerns the target T1, E. coli Exonuclease I. The experiment in a line: fluorescence polarisation; competition fluorescence anisotropy: 0.5 µM ExoI, 50 nM F-wtSSB tracer, 0–500 µM unlabeled peptide, 30 min at room temperature, read at 25 °C; 20 mM Tris-HCl pH 8.0, 100 mM NaCl, 1 mM MgCl2, 1 mM 2-mercaptoethanol, 10% glycerol; both purified.
The next assay addresses T2, Escherichia coli RecO (Escherichia coli, UniProt P0A7H3 1-242).
T2 construct: RecO of Escherichia coli, synthetic gene in pET28a+ with a TEV site at the 5' end; The His tag was cut off with TEV protease only for the purified protein; source: E. coli Rosetta, purified (Ni-NTA, heparin); also in cell lysate (pull-down); not shown: His tag, N-terminal, cleaved
T2 sequence: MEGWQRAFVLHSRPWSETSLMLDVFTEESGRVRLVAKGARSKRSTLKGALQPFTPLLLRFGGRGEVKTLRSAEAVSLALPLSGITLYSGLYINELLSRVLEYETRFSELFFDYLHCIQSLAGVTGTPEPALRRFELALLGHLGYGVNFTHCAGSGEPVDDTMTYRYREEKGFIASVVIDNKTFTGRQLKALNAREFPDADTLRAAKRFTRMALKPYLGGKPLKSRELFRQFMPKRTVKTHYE
The assay is described as follows: fluorescence polarisation; competition fluorescence anisotropy: 0.5 µM RecO, 50 nM F-wtSSB tracer, 0–500 µM unlabeled peptide, 30 min at room temperature, read at 25 °C; 20 mM Tris-HCl pH 8.0, 200 mM NaCl, 1 mM 2-mercaptoethanol, 10% glycerol, 0.01% Triton-X 100; both purified. On the technique in general: Polarisation of emitted light reports the rotation of a fluorescent probe.

As to DFDDDIPF (4-CF3-Phe at position 2; N-terminus closed by acetylation) [mSSB-Ct 4CF3-Phe2 (unlabelled single mutant)], the binding entry in the assay with E. coli Exonuclease I [1] is recorded as “binds”.
Consider DFDDDIPF (β^3-Asp at position 4; N-terminus closed by acetylation) [mSSB-Ct with β^3-Asp at position 4 (unlabelled single mutant)], for which the binding result with E. coli Exonuclease I [2] is “binds”.
Same read-out and setting: the value for DFDDDIPF (N-methyl-Asp (NM-Asp) at position 4; N-terminus closed by acetylation) [mSSB-Ct with NM-Asp at position 4 (unlabelled single mutant)] was “binds”.
With DFDDDIPF (4-Cl-Phe at position 8; N-terminus closed by acetylation) [mSSB-Ct with 4-Cl-Phe at position 8 (unlabelled single mutant)], the binding result in the assay with E. coli Exonuclease I [2] and with Escherichia coli RecO was “binds” each time.
Regarding DFDDDIPF (3-Cl-Phe at position 2; N-terminus closed by acetylation) [mSSB-Ct with 3-Cl-Phe at position 2 (unlabelled single mutant)], the binding entry with E. coli Exonuclease I [2] was “binds”.
Regarding EFDDDIPF (N-terminus closed by acetylation) [mSSB-Ct with Asp to Glu at position 1 (unlabelled single mutant)], the binding entry with E. coli Exonuclease I [2] is “binds”.
Regarding GGDFDDDIPF (5,6-carboxyfluorescein on the N-terminus) [fluorescein-labeled wtSSB-Ct], the binding entry with E. coli Exonuclease I [2] is recorded as “binds”.
With DFDDDIPF (4-F-proline at position 7; N-terminus closed by acetylation) [mSSB-Ct with 4-F-proline at position 7 (unlabelled single mutant)], the binding result with E. coli Exonuclease I [2] is given as “binds”.
With DFDDDIPF (4-CF3-Phe at position 8; N-terminus closed by acetylation) [mSSB-Ct 4CF3-Phe8 (unlabelled single mutant)], the binding entry in the assay with E. coli Exonuclease I [1] is “binds”.
As for DFDDDIPF (4-CF3-Phe at positions 2 and 8; N-terminus closed by acetylation) [E2-sSSB-Ct (Asp–4-CF3-Phe–Asp–Asp–Asp–Ile–Pro–4-CF3-Phe)], in the assay with E. coli Exonuclease I [1], the binding entry is reported as “binds”.
On to DFDDDIPF (4-F-Phe at position 8; N-terminus closed by acetylation) [mSSB-Ct with 4F-Phe at position 8 (unlabelled single mutant)], for which the binding result with E. coli Exonuclease I [2] and with Escherichia coli RecO was “binds” throughout.
